PubChem BioAssay AID2685 (National Center for Advancing Translational Sciences (NCATS), 2010)
Some of the results follow. The main result of the screen is listed elsewhere. These columns were measured beside it and carry no call. Compounds called inactive in the main read-out are mostly missing here. Potencies come from curve fits of mixed quality, noted in brackets.

Assay: qHTS Assay for Lipid Storage Modulators in Drosophila S3 Cells;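 for cell number change: cells counted by Cell Tracker Red CMTPX staining in the red channel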
Conditions: BODIPY lipid droplet fluorescence, 18-24 h; for cell number change: measured here: cell count max response, cells fed with added oleic acid
Outline: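 Drosophila S3 cells got compounds at several concentrations plus oleic acid (400 uM solution). Laser-scanning cytometry with 488 nm excitation read lipid droplets at 500-530 nm and cells at 575-640 nm. Percent activity was relative to 20 uM Triacsin C.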

[1] = measured here: lipid fluorescence (Fed channel) AC50, cells fed with added oleic acid
[2] = measured here: cell number channel AC50, cells fed with added oleic acid

Row | Compound | cell number change | AC50 [1] | AC50 [2]
1 | O=C(c1ccc(N2CCCCC2)c([N+](=O)[O-])c1)N(Cc1ccccc1)c1ccccn1 | -23.5% | 4.11 µM [falling, partial curve] | 
2 | CC(NC(=O)Nc1ccccc1Cl)c1ccc2c(c1)OCO2 (stereo not drawn) |  | 0.58 µM [rising, single point] | 
3 | CC(=O)Oc1ccc(Oc2ccc(-c3noc(C)n3)cc2)cc1 |  | 0.731 µM [falling, full curve] | 1.16 µM [falling, full curve, poor fit]
4 | O=C(Nc1cc(Cl)ccc1Cl)c1cc(-c2ccco2)on1 | 13.9% | 0.13 µM [rising, partial curve, poor fit] | 
5 | CCN(c1ccccc1C)S(=O)(=O)c1cc2c3c(c1)CCC(=O)N3CCC2 | -20.5% | 6.51 µM [falling, partial curve] | 3.26 µM [falling, full curve, poor fit]
6 | CCOC(=O)C1(CCCc2ccccc2)CCN(Cc2cnn(C)c2)CC1 | 15.4% | 0.13 µM [rising, full curve, poor fit] | 
7 | O=C1CCC(=O)N1c1nc2nc(-c3ccccc3)cc(=O)n2[nH]1 | -2.7% | 14.6 µM [falling, partial curve] | 
8 | CCN1CCS/C1=C\C=C\C1=[N+](CC)CCS1 | -69.9% |  | 
9 | COc1ccc(OC)c2sc(N3CCc4ccccc4C3)nc12 | 29.2% |  | 
10 | NC(=O)CN1CCOCCOCCN(CC(N)=O)CCOCC1 | 9.08% |  | 
11 | COc1cccc(-c2noc(C3CCCN(C(=O)CC(C)(C)C)C3)n2)c1 (stereo not drawn) | -8.08% | 0.0731 µM [falling, full curve, poor fit] | 
12 | COc1ccc(-n2c(SCC(=O)Nc3ccccc3OC)nc(O)c(Cc3ccccc3)c2=O)cc1 | 17.9% | 29.1 µM [falling, single point] | 
13 | CCOc1ccc(NC(=O)Cn2nc(-c3ccccc3Cl)n(CC)c2=S)cc1 | -9.73% |  | 
14 | Cc1nc(-c2ccc(NS(C)(=O)=O)cc2)cs1 | 35.5% |  | 29.1 µM [rising, single point]
15 | Cc1cc(NC(=O)CSc2cn(CCNC(=O)c3ccc(Cl)cc3)c3ccccc23)no1 |  | 1.46 µM [rising, full curve] | 1.3 µM [rising, full curve, poor fit]
16 | CN(CC(=O)Nc1ccc(F)c(F)c1F)C(=O)C1CCC1 | -8% |  | 
17 | CC(C)CCN1C(=O)CCC1(C)C(=O)NC1CCCCCC1 (stereo not drawn) | -12.7% | 16.4 µM [falling, single point] | 
18 | CC(=O)c1cc2c(cc1NC(=O)Nc1cccc(Cl)c1)OCCO2 |  | 6.51 µM [rising, single point] | 3.26 µM [rising, partial curve]
19 | CC(=O)NC1C(Oc2ccc3c(C)cc(=O)oc3c2)OC(COC(C)=O)C(OC(C)=O)C1OC(C)=O (stereo not drawn) | -30.8% |  | 23.1 µM [falling, single point]
20 | O=C(c1ccco1)c1cn(CC(=O)N2CCCc3ccccc32)c2ccccc12 |  | 6.51 µM [rising, single point] | 
21 | CCOC(=O)C1=C(C)OC(N)=C(C#N)C1c1c(C)nn(-c2ccc(C)cc2)c1Cl (stereo not drawn) | 14.9% | 6.51 µM [rising, full curve] | 

Among those listed so far, these have two or more sulfur atoms:
Row | Compound | cell number change | AC50 [1] | AC50 [2]
8 | CCN1CCS/C1=C\C=C\C1=[N+](CC)CCS1 | -69.9% |  | 
14 | Cc1nc(-c2ccc(NS(C)(=O)=O)cc2)cs1 | 35.5% |  | 29.1 µM [rising, single point]

Three entries picked at random from the list so far, as already listed:
Row | Compound | cell number change | AC50 [1] | AC50 [2]
17 | CC(C)CCN1C(=O)CCC1(C)C(=O)NC1CCCCCC1 (stereo not drawn) | -12.7% | 16.4 µM [falling, single point] | 
9 | COc1ccc(OC)c2sc(N3CCc4ccccc4C3)nc12 | 29.2% |  | 
10 | NC(=O)CN1CCOCCOCCN(CC(N)=O)CCOCC1 | 9.08% |  | 

Going on with the list:

Row | Compound | cell number change | AC50 [1] | AC50 [2]
22 | CCN(CC)CCOc1ccc(/C(=C(\Cl)c2ccccc2)c2ccccc2)cc1 | -5.2% |  | 
23 | COC(CN(C)C(=O)C1CCCN(S(=O)(=O)c2ccc3c(c2)oc(=O)n3C)C1)OC (stereo not drawn) | 8.96% |  | 
24 | Cc1ccc(NC(=O)C2=CC=CN3CCS(=O)(=O)N=C23)cc1 | 7.19% | 2.59 µM [falling, single point] | 
25 | OCCN(CCO)CC(O)COc1ccc2c(c1)OCO2 (stereo not drawn) | -13.8% |  | 
26 | O=C(C1CCCN(S(=O)(=O)c2cc(Cl)ccc2Cl)C1)N1CCOCC1 (stereo not drawn) | -13.9% | 29.1 µM [falling, single point] | 
27 | CCN(CC(=O)NCCc1ccccc1)S(=O)(=O)c1ccc(C)cc1 | 20.7% | 8.2 µM [rising, partial curve] | 
28 | Cc1ccc(-c2nnn(CC(=O)N(CCO)C(C(=O)NC(C)(C)C)c3ccncc3)n2)cc1 (stereo not drawn) | 2.46% | 4.11 µM [falling, single point] | 
29 | CCCCn1c(N)c(N(CCC(C)C)C(=O)c2cc(S(=O)(=O)N3CCOCC3)ccc2F)c(=O)[nH]c1=O | -2.77% |  | 
30 | O=[N+]([O-])c1ccc2c(c1)CNc1ccccc1O2 | -34.8% | 23.1 µM [falling, single point] | 25.9 µM [falling, single point]
31 | COc1cccc(-c2nn(-c3ccc(C)cc3)cc2C(=O)NCC(c2cccs2)N2CCOCC2)c1 (stereo not drawn) | 25.6% | 1.03 µM [rising, partial curve] | 1.64 µM [rising, full curve, poor fit]
32 | N#C/C(=C\c1cccnc1)C(=O)Nc1ccc(Cl)cc1 | 9.27% | 29.1 µM [falling, single point] | 
33 | NC(=O)c1ccc(NC(=O)COc2ccc([N+](=O)[O-])cc2Cl)cc1 | 80.9% |  | 
34 | CCC(C(=O)Nc1ccc(OC)c(Cl)c1)c1ccccc1 (stereo not drawn) | -51.4% |  | 20.6 µM [falling, single point]
35 | CSCC[C@H](NC(=O)NCc1ccccc1F)C(=O)O | -32.5% | 25.9 µM [falling, partial curve] | 0.461 µM [falling, full curve, poor fit]
36 | O=C(CSc1nnc(CNC(=O)c2cccs2)o1)c1ccc(Cl)cc1 | 45% | 6.51 µM [falling, single point] | 29.1 µM [rising, single point]
37 | Cc1ccc(NC(=O)c2c(-c3ccccc3)noc2C)nc1 | -59.1% | 1.64 µM [rising, partial curve, poor fit] | 18.4 µM [falling, partial curve, poor fit]
38 | CCNC(=O)Nc1ccc(S(=O)(=O)Nc2cnc(C)nc2C)cc1 | 26.9% |  | 
39 | CC(C)NC(=O)Cn1c(SCC(=O)N2CCc3ccccc3C2)nc2ccccc21 | 3.61% | 2.31 µM [rising, full curve] | 1.3 µM [rising, partial curve, poor fit]
40 | COc1ccc(C)cc1NC(=O)C1CC(=O)OC12CCCCC2 (stereo not drawn) | 33.9% | 0.184 µM [falling, full curve, poor fit] | 16.4 µM [rising, partial curve, poor fit]
41 | COc1ccc(/C=C(/NC(=O)c2cccs2)C(=O)NCc2ccco2)cc1OC | -49% | 0.517 µM [falling, full curve, poor fit] | 0.58 µM [falling, full curve]
42 | CCOC(=O)c1cccc(NC(=O)CSc2nnc(-c3ccncc3)n2CCCOC)c1 | -6.31% | 2.06 µM [rising, partial curve] | 

Row | Compound | cell number change | AC50 [1] | AC50 [2]
43 | CC(=O)Nc1cccc(NC(=O)C2CCN(C(=O)c3ccco3)CC2)c1 | 11.8% | 0.13 µM [falling, partial curve, poor fit] | 
44 | CCOC(=O)C1=C(c2ccccc2)NC(SCC(=O)Nc2ccc(C)cc2)=C(C#N)C1c1ccco1 (stereo not drawn) | 59.2% | 32.6 µM [rising, single point] | 32.6 µM [rising, single point]
45 | CC(=O)Nc1nc(CC(C)C)cc(-c2ccco2)c1C#N | -1.59% | 7.31 µM [rising, partial curve, poor fit] | 
46 | CCn1c(SCC(=O)Nc2ccc3c(c2)OCO3)nc2c1c(=O)n(C)c(=O)n2C | 30.5% | 0.411 µM [rising, full curve] | 0.13 µM [rising, full curve]
47 | O=C(Nc1cc(Cl)ccc1-n1cncn1)C1CC1 | 16.6% |  | 
48 | C/C(=N/Oc1nc(C)cc(C)n1)c1ccc(Br)cc1 |  | 1.46 µM [rising, partial curve] | 1.3 µM [rising, partial curve]
49 | COC(=O)C(NC(=O)c1ccccc1C(=O)O)c1ccc2ccccc2c1 (stereo not drawn) | 2.49% | 29.1 µM [falling, single point] | 
50 | CCc1sc(C(=O)NCCCn2ccnc2)cc1Br | -6.74% |  | 
51 | COc1ccc(C)cc1NC(=O)NC1CCCCCCC1 | -2.31% |  | 
52 | COc1ccc(-c2cc(C3CCN(Cc4cccc(C(F)(F)F)c4)CC3)[nH]n2)cc1 | -75.6% |  | 
53 | CCc1nc(SCc2cccnc2)c2c(=O)n(C)c(=O)n(C)c2n1 | 132% | 3.66 µM [rising, partial curve] | 2.91 µM [rising, partial curve]
54 | Cc1ccc(C)c(CN2CCSCC2)c1 |  |  | 6.51 µM [falling, single point]
55 | O=C(CCN1CCCCCC1)Nc1cccc(F)c1 |  | 16.4 µM [falling, partial curve] | 
56 | Cc1ccc(NC(=O)C2CCCN2C(=O)NC2CCCCC2)cc1C (stereo not drawn) | -5.93% |  | 
57 | Cc1onc(-c2ccccc2)c1C(=O)N/N=C/C(Br)=C/c1ccccc1 | 35.9% |  | 14.6 µM [rising, single point]
58 | Cc1noc(C)c1COC(=O)/C=C/c1ccccc1Cl | -27.1% | 29.1 µM [falling, single point] | 
59 | C=CCC1NS(=O)(=O)OCC1NC(=O)OCC(Cl)(Cl)Cl (stereo not drawn) | 23.6% |  | 
60 | CCN(CC)CCCN1CC(=O)N2[C@@H](Cc3c([nH]c4ccccc34)C2(C)C)C1=O | 8.5% | 6.51 µM [rising, single point] | 
61 | C[C@H](NC(=O)c1nc[nH]c1C(=O)NC1CCN(C(=O)OC(C)(C)C)CC1)C(=O)OCc1ccccc1 | -31.3% |  | 29.1 µM [falling, single point]
